Our source for the TEAD-luciferase reporter activity values is the supplement of paper PMC10735217.

For the test, the system named is HEK293A TEAD-LUC reporter. The test is described as follows: TEAD-luciferase reporter activity (YAP activation), robust Z score vs plate; higher = stronger YAP/TEAD activation. The note with it: 24 h.

Structures can show the parent of a compound that is named as a salt. Some of the results follow. This data set is noisy: repeats of one test often differ as much as different tests do.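 Human kidney-derived cells stably carry a construct in which eight TEAD-binding elements drive luciferase, measured by luminescence in a drug-repurposing library screen. A hit is any compound whose signal exceeds the plate mean by more than five robust Z scores.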

As to `CCC(=O)OCC(=O)[C@@]1(OC(=O)CC)[C@@H](C)C[C@H]2[C@@H]3CCC4=CC(=O)C=C[C@]4(C)[C@@]3(Cl)[C@@H](O)C[C@@]21C` [beclometasone dipropionate,Chiesi], the TEAD-luciferase reporter activity (compound concentration: 2 uM) was inactive: -0.797.
Turning to `CCC(=O)OCC(=O)[C@@]1(OC(=O)CC)[C@@H](C)C[C@H]2[C@@H]3CCC4=CC(=O)C=C[C@]4(C)[C@@]3(Cl)[C@@H](O)C[C@@]21C` [Beclomethasone dipropionate], the TEAD-luciferase reporter activity is inactive: -1.02 (compound concentration: 200 nM) and inactive: 1.97 (compound concentration: 10 uM).
Taken in the same sequence, the figures for `Cc1cccc(COCCCOCc2coc(-c3ccccc3)n2)c1C(=O)O` were inactive: -0.18 and inactive: -0.389.
On to `O=C1CC2(CCCC2)CC(=O)N1CCCCNCC1COc2ccccc2O1` (configuration not stated), for which the TEAD-luciferase reporter activity by setting is: (compound concentration: 200 nM) inactive: 0.366; (compound concentration: 2 uM) inactive: -1.19; (compound concentration: 10 uM) inactive: -0.399.
Taken in the same sequence, the figures for `CCCC(CCC)N1CCn2nc(-c3ccc(Cl)cc3Cl)c3nc(C)cc1c32` were inactive: -1.11, inactive: -0.767 and inactive: 0.152.
Taken in the same sequence, the figures for `O=c1c(-c2ccc(O)cc2)coc2cc(O)cc(O)c12` were inactive: -1.49, inactive: 0.133 and inactive: 1.1.
As to `O=C(O)/C=C/c1ccc(O)cc1` [p-Hydroxycinnamic acid], the TEAD-luciferase reporter activity (compound concentration: 200 nM) was inactive: 2, the TEAD-luciferase reporter activity (compound concentration: 2 uM) was inactive: -0.0922 and the TEAD-luciferase reporter activity (compound concentration: 10 uM) is inactive: 0.613.
Taken in the same sequence, the figures for `O=C(OCCOCCN1CCCCC1)N1c2ccccc2Sc2cccnc21` were inactive: -1.95, inactive: -0.295 and inactive: 1.13.
Taken in the same sequence, the figures for `CC(C)(O)c1ccc2c(c1)ncn2-c1cccc(-c2ccccc2C#N)c1` were inactive: 0.871, inactive: -1.51 and inactive: -0.931.
With `CC(=O)N(C)c1ccc(Nc2cc(C)nc3ccc4nc[nH]c4c23)cc1`, the TEAD-luciferase reporter activity (compound concentration: 2 uM) was inactive: 1.12.
Regarding `CC(=O)N(C)c1ccc(Nc2cc(C)nc3ccc4nc[nH]c4c23)cc1` [Acodazole HCl], the TEAD-luciferase reporter activity was inactive: -0.859 (compound concentration: 200 nM) and inactive: -0.541 (compound concentration: 10 uM).
For `CC(C)(N)C(=O)N[C@H](COCc1ccccc1)C(=O)N1CCC2(CC1)CN(S(C)(=O)=O)c1ccccc12` [Ibutamoren mesilate], the TEAD-luciferase reporter activity (compound concentration: 200 nM) was inactive: -0.938, the TEAD-luciferase reporter activity (compound concentration: 2 uM) was inactive: -1.07 and the TEAD-luciferase reporter activity (compound concentration: 10 uM) was inactive: -0.739.
In the same order, the values of `CC(C)O` are inactive: -0.951, inactive: -0.485 and inactive: 0.105.
In the same order, the values of `CO/N=C1/C[C@@H](C(=O)NC[C@@H](O)c2ccccc2)N(C(=O)c2ccc(-c3ccccc3C)cc2)C1` are inactive: -0.295, inactive: -0.458 and inactive: 0.367.
Turning to `COc1cccc(C(=O)NC2CCCN(Cc3ccc(-c4cccc(OC)c4)cc3)C2)c1` (configuration not stated), the TEAD-luciferase reporter activity by setting is: (compound concentration: 200 nM) inactive: 0.222; (compound concentration: 10 uM) inactive: 0.484.
In the case of `NC(=O)c1cccc2c(NC(CN3CCC3)c3ccc(Cl)c(C(F)(F)F)c3)ncnc12` (configuration not stated), the TEAD-luciferase reporter activity by setting is: (compound concentration: 200 nM) inactive: -0.251; (compound concentration: 2 uM) inactive: -0.433; (compound concentration: 10 uM) inactive: -1.48.
In the same order, the values of `COc1cc(N)c(Cl)cc1C(=O)NC1CCN(Cc2ccccc2)CC1` [clebopride] are inactive: 1.68, inactive: -1.09 and inactive: 2.59.
As to `CC(C)[C@@H]1CC[C@@H](C)C[C@H]1OC(=O)[C@@H]1CCC(=O)N1`, the TEAD-luciferase reporter activity runs as follows: (compound concentration: 200 nM) inactive: -1.29; (compound concentration: 2 uM) inactive: 1.05; (compound concentration: 10 uM) inactive: -0.86.
In the same order, the values of `COc1ccc(CNc2nnc(N3CCC(O)CC3)c3ccc(C#N)cc23)cc1Cl` are inactive: -2.08, inactive: -1.31 and inactive: -0.644.
In the same order, the values of `C[C@@H](NCCCn1ccnc1)c1ccccc1Cl` are inactive: -0.797, inactive: 0.0292 and inactive: -1.81.
As for `Cc1c(C)c2c(c(C)c1O)CC[C@@](C)(C(=O)N[C@@H]1CCCNC1)O2`, the TEAD-luciferase reporter activity (compound concentration: 200 nM) was inactive: -0.228, the TEAD-luciferase reporter activity (compound concentration: 2 uM) is inactive: -0.667 and the TEAD-luciferase reporter activity (compound concentration: 10 uM) was inactive: -1.49.
Taken in the same sequence, the figures for `Cc1ncc(COC(=O)C(C)c2ccc(CC(C)C)cc2)c(CO)c1O` (configuration not stated) [piridoxiprofen] were inactive: -0.914, inactive: -0.108 and inactive: 0.464.
With `COc1ccc(F)c(F)c1C(=O)c1cnc(NC2CCN(S(C)(=O)=O)CC2)nc1N`, the TEAD-luciferase reporter activity is inactive: -0.73 (compound concentration: 200 nM), inactive: -2.69 (compound concentration: 2 uM) and inactive: 1.9 (compound concentration: 10 uM).
In the same order, the values of `c1cn2cc(-c3ccc4c(c3)nc3n4CCN4CCCCC4C3)ccc2n1` (configuration not stated) are inactive: -0.411, inactive: -0.681 and inactive: 1.
Taken in the same sequence, the figures for `O=C(c1ccc(F)cc1)c1ccccc1N[C@@H](Cc1ccc(OCCn2c3ccccc3c3ccccc32)cc1)C(=O)O` [Chiglitazar] were inactive: -0.567, inactive: -0.651 and inactive: 2.54.
`CC1(C(=O)O)CCN(C(=O)c2ccc3c(c2)OC(F)(F)O3)CC1`: the TEAD-luciferase reporter activity is, setting by setting: (compound concentration: 200 nM) inactive: 2.4; (compound concentration: 10 uM) inactive: 4.47.
Take `CCc1ccc(/C=C2\SC(=N)NC2=O)cc1`: the TEAD-luciferase reporter activity is, setting by setting: (compound concentration: 200 nM) active: 5.09; (compound concentration: 2 uM) inactive: 3.31; (compound concentration: 10 uM) inactive: 2.07.
